The values below come from paper PMC6521037.

Amino acid sequences for entries named in this document (tags omitted).
UniProt Q9HAU4: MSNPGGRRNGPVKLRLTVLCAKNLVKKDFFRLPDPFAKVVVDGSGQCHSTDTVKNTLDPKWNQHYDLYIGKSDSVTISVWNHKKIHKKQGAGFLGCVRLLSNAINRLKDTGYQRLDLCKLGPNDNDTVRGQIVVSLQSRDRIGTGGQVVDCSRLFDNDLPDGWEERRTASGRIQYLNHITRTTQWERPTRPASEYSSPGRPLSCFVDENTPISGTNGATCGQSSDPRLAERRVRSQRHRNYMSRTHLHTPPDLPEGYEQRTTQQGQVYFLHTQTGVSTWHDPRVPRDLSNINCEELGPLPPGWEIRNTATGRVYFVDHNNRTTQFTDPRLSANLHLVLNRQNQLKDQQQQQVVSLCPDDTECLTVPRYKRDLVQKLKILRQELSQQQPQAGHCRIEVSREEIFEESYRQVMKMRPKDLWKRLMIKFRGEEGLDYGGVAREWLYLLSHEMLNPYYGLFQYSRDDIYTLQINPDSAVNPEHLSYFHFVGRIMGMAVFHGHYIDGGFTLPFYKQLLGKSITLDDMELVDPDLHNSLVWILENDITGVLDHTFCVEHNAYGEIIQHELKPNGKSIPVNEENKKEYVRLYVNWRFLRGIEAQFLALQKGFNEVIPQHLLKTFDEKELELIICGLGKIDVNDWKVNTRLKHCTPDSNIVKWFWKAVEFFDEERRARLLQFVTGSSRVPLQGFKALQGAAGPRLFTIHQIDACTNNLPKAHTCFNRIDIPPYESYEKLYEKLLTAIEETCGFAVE
UniProt P63104: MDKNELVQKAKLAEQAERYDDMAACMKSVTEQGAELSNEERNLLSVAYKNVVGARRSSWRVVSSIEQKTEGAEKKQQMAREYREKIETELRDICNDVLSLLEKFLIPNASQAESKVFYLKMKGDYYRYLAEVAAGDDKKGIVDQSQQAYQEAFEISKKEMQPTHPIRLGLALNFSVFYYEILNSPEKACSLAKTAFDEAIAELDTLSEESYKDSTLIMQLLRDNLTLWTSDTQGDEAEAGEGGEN
UniProt P62258: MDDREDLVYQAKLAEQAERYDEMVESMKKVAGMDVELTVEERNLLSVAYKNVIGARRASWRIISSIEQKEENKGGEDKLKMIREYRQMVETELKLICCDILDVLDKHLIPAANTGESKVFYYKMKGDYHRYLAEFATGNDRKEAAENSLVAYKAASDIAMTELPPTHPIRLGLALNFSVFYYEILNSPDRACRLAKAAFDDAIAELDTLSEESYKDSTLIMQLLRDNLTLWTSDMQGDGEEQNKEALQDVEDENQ
UniProt P31946: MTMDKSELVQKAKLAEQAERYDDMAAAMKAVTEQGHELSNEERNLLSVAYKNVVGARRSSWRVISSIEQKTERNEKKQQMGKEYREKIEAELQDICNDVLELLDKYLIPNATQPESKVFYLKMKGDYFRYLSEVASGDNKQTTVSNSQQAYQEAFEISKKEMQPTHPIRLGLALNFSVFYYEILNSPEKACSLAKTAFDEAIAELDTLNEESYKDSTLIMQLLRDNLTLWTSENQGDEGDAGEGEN

Results are given in words; binding and its absence hold for the method and conditions named. In cells and extracts the contact can be indirect. Some results given as binding are weak or reduced against the parent protein; the word gives no strength.

The experiment concerns the target SMURF2 (endogenous) (human (endogenous in MCF7 and MCF10A)) (UniProt Q9HAU4). Kind of experiment: co-IP; endogenous proteins in MCF7 and MCF10A lysates (1% NP-40 buffer, 500 μg); anti-SMURF2 antibody (sc-25511) or rabbit IgG control overnight at 4 °C, Protein G-Sepharose; blots with 14-3-3 isoform-specific antibodies.

For the molecule “14-3-3 Zeta/delta (from UniProt P63104 1-245)”, the binding result is “binds”.
In the case of “14-3-3 epsilon (from UniProt P62258 1-255)” it was “binds”; in that of 14-3-3 β/α (from UniProt P31946 1-246), “binds”.

B1: 14-3-3 η (protein, UniProt Q04917 1-246)
chain: MGDREQLLQRARLAEQAERYDDMASAMKAVTELNEPLSNEDRNLLSVAYKNVVGARRSSWRVISSIEQKTMADGNEKKLEKVKAYREKIEKELETVCNDVLSLLDKFLIKNCNDFQYESKVFYLKMKGDYYRYLAEVASGEKKNSVVEASEAAYKEAFEISKEQMQPTHPIRLGLALNFSVFYYEIQNAPEQACLLAKQAFDDAIAELDTLNEDSYKDSTLIMQLLRDNLTLWTSDQQDEEAGEGN
Consider B1, for which the binding result is listed as “binds”.

B2: 14-3-3 gamma (protein, UniProt P61981 1-247)
chain: MVDREQLVQKARLAEQAERYDDMAAAMKNVTELNEPLSNEERNLLSVAYKNVVGARRSSWRVISSIEQKTSADGNEKKIEMVRAYREKIEKELEAVCQDVLSLLDNYLIKNCSETQYESKVFYLKMKGDYYRYLAEVATGEKRATVVESSEKAYSEAHEISKEHMQPTHPIRLGLALNYSVFYYEIQNAPEQACHLAKTAFDDAIAELDTLNEDSYKDSTLIMQLLRDNLTLWTSDQQDDDGGEGNN
Turning to B2, the binding entry is recorded as “binds”.

B3: 14-3-3 theta (protein, UniProt P27348 1-245)
chain: MEKTELIQKAKLAEQAERYDDMATCMKAVTEQGAELSNEERNLLSVAYKNVVGGRRSAWRVISSIEQKTDTSDKKLQLIKDYREKVESELRSICTTVLELLDKYLIANATNPESKVFYLKMKGDYFRYLAEVACGDDRKQTIDNSQGAYQEAFDISKKEMQPTHPIRLGLALNFSVFYYEILNNPELACTLAKTAFDEAIAELDTLNEDSYKDSTLIMQLLRDNLTLWTSDSAGEECDAAEGAEN
Turning to B3, the binding result is given as “binds”.
